# Part of at least one peptide drawing is inferred or uncertain, most often the ends.
# Amino acid sequences for entries named in this document (tags omitted).
# UniProt Q92847, whole entry: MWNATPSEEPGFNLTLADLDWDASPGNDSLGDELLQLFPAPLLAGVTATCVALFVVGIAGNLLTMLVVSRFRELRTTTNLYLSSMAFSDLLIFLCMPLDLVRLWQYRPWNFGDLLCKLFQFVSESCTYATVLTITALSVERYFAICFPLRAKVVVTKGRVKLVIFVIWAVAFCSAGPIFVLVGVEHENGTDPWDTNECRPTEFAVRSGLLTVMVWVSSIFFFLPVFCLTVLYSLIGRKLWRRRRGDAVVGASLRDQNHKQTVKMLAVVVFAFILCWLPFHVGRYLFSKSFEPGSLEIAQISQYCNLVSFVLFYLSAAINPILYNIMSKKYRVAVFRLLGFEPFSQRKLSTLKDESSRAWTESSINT
# Molecular target: T1, human GSH receptor (Homo sapiens, UniProt Q92847)
# T1 construct: The full length human GHS-R was subcloned into the mammalian expression vector pcDNA 3.1; expressed in transfected cells
# Assay: In vitro GSH receptor mediated intracellular iCa2+ mobilization (Fura-2AM, CHO-K1 cells)
# Format: cell-based
# Settings: CHO-K1 cells expressing the human receptor, 37° C.
# Method: 2A. In vitro GSH Receptor Mediated Intracellular iCa^2+Mobilization
# The foregoing CHO-K1 cells expressing the human GSH receptor were harvested by incubating in a 0.3% EDTA/phosphate buffered saline solution at 25° C.; the cells were then washed 2 times by centrifugation. The washed cells were resuspended in Hank's buffered saline solution (HBSS) for loading of the fluorescent Ca^2+ indicator Fura-2AM. Cell suspensions of approximately 10^6 cells/ml were incubated with 2 μM Fura-2AM for about 30 minutes at about 25° C. Unloaded Fura-2AM was removed by centrifugation twice in HBSS and the final suspensions were transferred to a spectrofluorometer (model Hitachi F-2000® Tokyo, Japan) equipped with a magnetic stirring mechanism and a temperature-regulated cuvette holder. After equilibration to 37° C., the ghrelin analogs were added for measurement of intracellular Ca^2+ mobilization. The excitation and emission wavelengths were 340 and 510 nm, respectively. An increase in the amount of Ca^2+ measured was indicative of agonist activity of a tested peptide while a decrease in the amount (or lack of) Ca^2+ measure was indicative of antagonist activity of a tested peptide.
smiles,measurement,value
"CCCCCCNC(=O)CC[C@H](NC(=O)C(C)(C)NC(=O)C1(NC(C)=O)CCNCC1)C(=O)N[C@@H](Cc1ccccc1)C(=O)N[C@@H](CC(C)C)C(=O)N[C@@H](CO)C(=O)N1CCC[C@H]1C(=O)N[C@@H](CCC(=O)O)C(=O)N[C@@H](Cc1c[nH]cn1)C(=O)NC(C)(C)C(=O)N[C@@H](CCCNC(=N)N)C(=O)N[C@H](C(=O)N[C@@H](CCC(N)=O)C(=O)N[C@@H](CCC(N)=O)C(=O)N[C@@H](CCCNC(=N)N)C(=O)N[C@@H](CCCCN)C(=O)N[C@@H](CCC(=O)O)C(=O)N[C@@H](CO)C(=O)N[C@@H](CCCCN)C(=O)N[C@@H](CCCCN)C(=O)N1CCC[C@H]1C(=O)N1CCC[C@H]1C(=O)N[C@@H](C)C(=O)N[C@@H](CCCCN)C(=O)N[C@@H](CC(C)C)C(=O)N[C@@H](CCC(N)=O)C(=O)N1CCC[C@H]1C(=O)N[C@@H](CCCNC(=N)N)C(N)=O)C(C)C [Example 2, (Ac-1-Apc^1, Aib^2, 10, Glu(NH-hexyl)^3)hGhrelin(1-28)-NH2]",agonist/antagonist activity at the ghrelin receptor (intracellular Ca2+ mobilization),antagonistic activity

# Reference: US8299022B2, “Analogs of ghrelin substituted at the N-terminal” (IPSEN Pharma S.A.S., priority 2006, dated 2012)
